Values quoted from earlier work in patent US10040872B2, “Alkylated cyclodextrin compositions and processes for preparing and using the same” (CyDex Pharmaceuticals, Inc., priority 2012, dated 2018).

Conditions: at saturation

Structure (SMILES): OC[C@H]1O[C@@H]2O[C@H]3[C@H](O)[C@@H](O)[C@@H](O[C@H]4[C@H](O)[C@@H](O)[C@@H](O[C@H]5[C@H](O)[C@@H](O)[C@@H](O[C@H]6[C@H](O)[C@@H](O)[C@@H](O[C@H]7[C@H](O)[C@@H](O)[C@@H](O[C@H]1[C@H](O)[C@H]2O)O[C@@H]7CO)O[C@@H]6CO)O[C@@H]5CO)O[C@@H]4CO)O[C@@H]3CO [α-CD, α-cyclodextrin]
- solubility in water: about 145 g/L
